Assay results published in the supplement of paper PMC4604168 (melanoma cell lines).
This is one part of the list. Many values rest on one well or one pass, so single values are uncertain.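 The apoptosis fraction was the count of cleaved-PARP antibody-stained nuclei relative to all DNA-stained nuclei, imaged in 1,536-well plates. Screening doses were set so most cells survived, and baseline and induced cleaved-PARP levels vary greatly across cell lines.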

Key:
Assay in all cases: cleaved PARP positive nuclei fraction relative to DMSO control; melanoma cells; higher = more apoptosis
Details in all cases: library dose: low library concentration; 72 h
WM115 = system: WM115
WM1716 = system: WM1716
WM1745 = system: WM1745
WM3526 = system: WM3526
WM3619 = system: WM3619
WM451Lu = system: WM451Lu

| SMILES | cleaved PARP positive nuclei fraction (WM115) [%] | cleaved PARP positive nuclei fraction (WM1716) [%] | cleaved PARP positive nuclei fraction (WM1745) [%] | cleaved PARP positive nuclei fraction (WM3526) [%] | cleaved PARP positive nuclei fraction (WM3619) [%] | cleaved PARP positive nuclei fraction (WM451Lu) [%] |
| --- | --- | --- | --- | --- | --- | --- |
| Cn1sc(=O)n(Cc2ccccc2)c1=O + CN(c1ncccc1CNc1nc(Nc2ccc3c(c2)CC(=O)N3)ncc1C(F)(F)F)S(C)(=O)=O [PF562271] (first compound 0.4 µM, partner dose 0.08 µM) | 55.6 | 75.8 | 107 | 39 | 96.7 | 124 |
| Cn1sc(=O)n(Cc2ccccc2)c1=O + CN(NC(=O)CC(=O)NN(C)C(=S)c1ccccc1)C(=S)c1ccccc1 [STA4783] (first compound 0.4 µM, partner dose 0.006 µM) | 157 | 180 | 291 | 67.4 | 143 | 267 |
| CC1(C)CCC(c2ccc(Cl)cc2)=C(CN2CCN(c3ccc(C(=O)NS(=O)(=O)c4ccc(N[C@H](CCN5CCOCC5)CSc5ccccc5)c(S(=O)(=O)C(F)(F)F)c4)cc3)CC2)C1 + COc1ccc(COc2ccc(Cc3cnc(N)nc3N)cc2OC)cc1 [GW2580] (first compound 0.4 µM, partner dose 1 µM) | 131 | 140 | 501 | 37.2 | 116 | 105 |
| Cn1sc(=O)n(Cc2ccccc2)c1=O + C[C@]1(O)C[C@@H](c2nc(-c3ccc4ccc(-c5ccccc5)nc4c3)c3c(N)nccn32)C1 [OSI906] (first compound 0.4 µM, partner dose 0.4 µM) | 125 | 177 | 127 | 49.2 | 190 | 52.6 |
| CN(c1ncccc1CNc1nc(Nc2ccc3c(c2)CC(=O)N3)ncc1C(F)(F)F)S(C)(=O)=O + COc1ccc(Cl)c(Nc2nc3ccccc3nc2NS(=O)(=O)c2cccc(NC(=O)C(C)(C)N)c2)c1 [XL147] (first compound 0.08 µM, partner dose 0.8 µM) | 117 | 1050 | 143 | 88.4 | 99.3 | 186 |
| NC(=O)c1ccc(N(C(N)=O)c2c(F)cccc2F)nc1-c1ccc(F)cc1F + C#Cc1cccc(Nc2ncnc3cc(OCCOC)c(OCCOC)cc23)c1 [erlotinib] (first compound 0.4 µM, partner dose 0.8 µM) | 155 | 82.2 | 136 | 84.4 | 82.4 | 63.8 |
| Cn1cnc2c(F)c(Nc3ccc(Br)cc3Cl)c(C(=O)NOCCO)cc21 [selumetinib] + Cc1cc([N+](=O)[O-])ccc1NS(=O)(=O)c1cc(Cl)ccc1Cl [FH535] (first compound 0.015 µM, partner dose 1 µM) | 183 | 64 | 99.6 | 94.2 | 109 | 122 |
| C[C@]1(O)C[C@@H](c2nc(-c3ccc4ccc(-c5ccccc5)nc4c3)c3c(N)nccn32)C1 + C[C@@H](Oc1cc(-c2cnn(C3CCNCC3)c2)cnc1N)c1c(Cl)ccc(F)c1Cl [Crizotinib] (first compound 0.4 µM, partner dose 0.2 µM) | 82 | 90.4 | 216 | 49.9 | 89.7 | 64.1 |
| Cn1cnc2c(F)c(Nc3ccc(Br)cc3Cl)c(C(=O)NOCCO)cc21 [selumetinib] + Nc1cccc2c1CN(C1CCC(=O)NC1=O)C2=O [lenalidomide] (first compound 0.015 µM, partner dose 1 µM) | 128 | 30.5 | 90.7 | 146 | 126 | 177 |
| C[C@@H](N)c1ccc(C(=O)Nc2ccnc3[nH]ccc23)cc1 + COc1cc2c(Oc3ccc4[nH]c(C)cc4c3F)ncnc2cc1OCCCN1CCCC1 [cediranib] (first compound 0.4 µM, partner dose 0.4 µM) | 204 | 235 | 112 | 103 | 97.7 | 80.7 |
| Cn1sc(=O)n(Cc2ccccc2)c1=O + OCCn1cc(-c2cnc3nnn(Cc4ccc5ncccc5c4)c3n2)cn1 [PF04217903] (first compound 0.4 µM, partner dose 1 µM) | 127 | 124 | 86 | 47.9 | 80.9 | 63.9 |
| CC1(C)CCC(c2ccc(Cl)cc2)=C(CN2CCN(c3ccc(C(=O)NS(=O)(=O)c4ccc(N[C@H](CCN5CCOCC5)CSc5ccccc5)c(S(=O)(=O)C(F)(F)F)c4)cc3)CC2)C1 + C[C@@H]1CCN(C(=O)CC#N)C[C@@H]1N(C)c1ncnc2[nH]ccc12 [CP690550] (first compound 0.4 µM, partner dose 1 µM) | 73.4 | 361 | 2240 | 77.5 | 133 | 132 |
| Cn1sc(=O)n(Cc2ccccc2)c1=O + Nc1ncn([C@H]2C[C@H](O)[C@@H](CO)O2)c(=O)n1 [decitabine] (first compound 0.4 µM, partner dose 0.1 µM) | 218 | 50.1 | 104 | 73.5 | 106 | 123 |
| COc1ccc(C2=N[C@@H](c3ccc(Cl)cc3)[C@@H](c3ccc(Cl)cc3)N2C(=O)N2CCNC(=O)C2)c(OC(C)C)c1 [Nutlin-3] + Nc1cccc2c1CN(C1CCC(=O)NC1=O)C2=O [lenalidomide] (first compound 0.1 µM, partner dose 1 µM) | 114 | 208 | 108 | 44.4 | 103 | 105 |
| NC1(c2ccc(-c3nc4ccn5c(=O)[nH]nc5c4cc3-c3ccccc3)cc2)CCC1 + COc1cc(Nc2ncc(F)c(Nc3ccc4c(n3)NC(=O)C(C)(C)O4)n2)cc(OC)c1OC [Tamatinib] (first compound 0.4 µM, partner dose 0.4 µM) | 341 | 129 | 131 | 71.1 | 114 | 46.8 |
| C[C@@H](N)c1ccc(C(=O)Nc2ccnc3[nH]ccc23)cc1 + C[C@@H](Oc1cc(-c2cnn(C3CCNCC3)c2)cnc1N)c1c(Cl)ccc(F)c1Cl [Crizotinib] (first compound 0.4 µM, partner dose 0.2 µM) | 62.4 | 94.9 | 112 | 219 | 84.8 | 73.3 |
| CN(c1ncccc1CNc1nc(Nc2ccc3c(c2)CC(=O)N3)ncc1C(F)(F)F)S(C)(=O)=O + Cc1nc(Nc2ncc(C(=O)Nc3c(C)cccc3Cl)s2)cc(N2CCN(CCO)CC2)n1 [dasatanib] (first compound 0.08 µM, partner dose 0.004 µM) | 62.4 | 42.1 | 162 | 75.8 | 100 | 148 |
| NC1(c2ccc(-c3nc4ccn5c(=O)[nH]nc5c4cc3-c3ccccc3)cc2)CCC1 + CC1(C)NC(=O)N(c2ccc([N+](=O)[O-])c(C(F)(F)F)c2)C1=O [nilutamide] (first compound 0.4 µM, partner dose 1 µM) | 74.6 | 60.2 | 94.4 | 73.8 | 90.2 | 51.2 |
| CC(=O)O[C@@]12CO[C@@H]1C[C@H](O)[C@@]1(C)C(=O)[C@H](O)C3=C(C)[C@@H](OC(=O)[C@H](O)[C@@H](NC(=O)OC(C)(C)C)c4ccccc4)C[C@@](O)([C@@H](OC(=O)c4ccccc4)[C@H]21)C3(C)C [Docetaxel] + C[C@@H]1CCN(C(=O)CC#N)C[C@@H]1N(C)c1ncnc2[nH]ccc12 [CP690550] (first compound 0.0001 µM, partner dose 1 µM) | 404 | 992 | 181 | 632 | 139 | 109 |
| CS(=O)(=O)c1ccc(C(=O)Nc2ccc(Cl)c(-c3ccccn3)c2)c(Cl)c1 [vismodegib] + C=C(c1ccc(C(=O)O)cc1)c1cc2c(cc1C)C(C)(C)CCC2(C)C [Bexarotene] (first compound 1 µM, partner dose 2 µM) | 38.5 | 60.3 | 92 | 45.9 | 97 | 54.6 |
| NC(=O)c1ccc(N(C(N)=O)c2c(F)cccc2F)nc1-c1ccc(F)cc1F + CC(=O)O[C@@]12CO[C@@H]1C[C@H](O)[C@@]1(C)C(=O)[C@H](O)C3=C(C)[C@@H](OC(=O)[C@H](O)[C@@H](NC(=O)OC(C)(C)C)c4ccccc4)C[C@@](O)([C@@H](OC(=O)c4ccccc4)[C@H]21)C3(C)C [Docetaxel] (first compound 0.4 µM, partner dose 0.0001 µM) | 111 | 54.7 | 158 | 182 | 144 | 177 |
| NC1(c2ccc(-c3nc4ccn5c(=O)[nH]nc5c4cc3-c3ccccc3)cc2)CCC1 + Cc1cc(N2CCOCC2)cc2[nH]c(-c3c(NC[C@@H](O)c4cccc(Cl)c4)cc[nH]c3=O)nc12 [BMS536924] (first compound 0.4 µM, partner dose 0.2 µM) | 296 | 390 | 116 | 87.2 | 96 | 128 |

An excerpt of these results, bar-delimited:
SMILES | cleaved PARP positive nuclei fraction (WM115) [%] | cleaved PARP positive nuclei fraction (WM1716) [%] | cleaved PARP positive nuclei fraction (WM1745) [%] | cleaved PARP positive nuclei fraction (WM3526) [%] | cleaved PARP positive nuclei fraction (WM3619) [%] | cleaved PARP positive nuclei fraction (WM451Lu) [%]
Cn1sc(=O)n(Cc2ccccc2)c1=O + CN(c1ncccc1CNc1nc(Nc2ccc3c(c2)CC(=O)N3)ncc1C(F)(F)F)S(C)(=O)=O [PF562271] (first compound 0.4 µM, partner dose 0.08 µM) | 55.6 | 75.8 | 107 | 39 | 96.7 | 124
NC(=O)c1ccc(N(C(N)=O)c2c(F)cccc2F)nc1-c1ccc(F)cc1F + C#Cc1cccc(Nc2ncnc3cc(OCCOC)c(OCCOC)cc23)c1 [erlotinib] (first compound 0.4 µM, partner dose 0.8 µM) | 155 | 82.2 | 136 | 84.4 | 82.4 | 63.8
Cn1cnc2c(F)c(Nc3ccc(Br)cc3Cl)c(C(=O)NOCCO)cc21 [selumetinib] + Nc1cccc2c1CN(C1CCC(=O)NC1=O)C2=O [lenalidomide] (first compound 0.015 µM, partner dose 1 µM) | 128 | 30.5 | 90.7 | 146 | 126 | 177
C[C@@H](N)c1ccc(C(=O)Nc2ccnc3[nH]ccc23)cc1 + C[C@@H](Oc1cc(-c2cnn(C3CCNCC3)c2)cnc1N)c1c(Cl)ccc(F)c1Cl [Crizotinib] (first compound 0.4 µM, partner dose 0.2 µM) | 62.4 | 94.9 | 112 | 219 | 84.8 | 73.3
